Source: PubChem BioAssay AID2517 (National Center for Advancing Translational Sciences (NCATS), 2010)
Screen size: about 350,000 compounds; about 1,200 (0.34%) were called active. Inconclusive means that the source gave no clear call. Such entries were picked first, then a sample of the others. The call rests on the fitted dose curve; in most records, active means well fitted inhibition curve with a large enough effect; inconclusive means small, poorly fitted or top-dose-only effect; inactive means no such curve, though single readings can be large or run the other way. Potencies beside an inconclusive call are fits to weak or partial responses and may not hold up.

Amino acid sequences for entries named in this document (tags omitted).
UniProt P27695, whole entry, looked up: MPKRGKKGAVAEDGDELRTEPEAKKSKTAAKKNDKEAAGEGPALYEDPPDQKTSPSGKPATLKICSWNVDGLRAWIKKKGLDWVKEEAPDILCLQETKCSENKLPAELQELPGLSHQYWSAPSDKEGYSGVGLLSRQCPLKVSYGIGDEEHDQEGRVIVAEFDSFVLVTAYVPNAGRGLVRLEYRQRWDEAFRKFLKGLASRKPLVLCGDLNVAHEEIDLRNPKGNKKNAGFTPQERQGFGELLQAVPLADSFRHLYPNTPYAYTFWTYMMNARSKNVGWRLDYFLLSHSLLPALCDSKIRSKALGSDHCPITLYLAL

Molecular target: DNA repair nuclease/redox regulator APEX1 (Homo sapiens) (UniProt P27695)
Assay: qHTS Assay for Inhibitors of the Human Apurinic/apyrimidinic Endonuclease 1 (APE1); further: nearly all actives have a fitted effect of over 55% in size
Conditions: recombinant APE1, TAMRA/BHQ-2 abasic DNA cleavage fluorescence; series mostly up to 65.8 µM
In short: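 Kinetic fluorescence read (525 ex/598 em nm, three reads 60 s apart) of AP-site incision; signal = third minus first read. Enzyme 0.75 nM, dual-labelled THF duplex 50 nM, compound preincubation 15 min RT.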
Potency means the concentration at half of the fitted maximal effect.

Row | Structure (SMILES) | Potency
1 | c1ccc(-c2c(-c3ccccc3)n(Cc3ccco3)c3ncnc(NCCCn4ccnc4)c23)cc1 | inconclusive: 2.51 µM [inhibitor, partial curve, poor fit]
2 | CCn1c(=O)c(C(=O)NNC(=O)c2ccccc2)c(O)c2ccccc21 | inactive
3 | Cc1cc(C)nc(SCc2cccc(C(=O)O)c2)n1 | inconclusive: 39.8 µM [inhibitor, single point]
4 | Cc1ccc(/C=C2\C(=N)N3N=C(CC(=O)N4CCOCC4)SC3=NC2=O)o1 | inactive
5 | CCCCCCCCCCCCC/C=C/[C@@H](O)[C@H](COP(=O)([O-])OCC[N+](C)(C)C)NC(=O)CCCCCCCCCCCCCCCCC | inconclusive: 44.7 µM [inhibitor, single point]
6 | Cc1ccc(OCc2ccc(C(=O)O)o2)cc1C | inactive
7 | COc1cc(C/C=C\c2ccccc2)c(OC)cc1O | inconclusive: 25.1 µM [inhibitor, single point]
8 | Cc1ccc(-c2ccc(/C=N\NC(=O)c3cc4c(ccc5ccccc54)o3)o2)cc1[N+](=O)[O-] | inactive
9 | O=C(/C(=C(\[O-])c1ccccc1)[n+]1ccc2ccccc2c1)c1ccc(Cl)cc1 | inconclusive: 3.98 µM [inhibitor, partial curve, poor fit]
10 | CCn1c(Cc2ccc(OC)cc2)nnc1SCC(=O)Nc1cccc(C(=O)OC)c1 | inconclusive: 0.398 µM [inhibitor, full curve, poor fit]
11 | Clc1cccc(OCCn2ccnc2)c1 | inactive
12 | O=C(Nc1ccccc1N1CCOCC1)c1cc(Br)c(Br)s1 | inconclusive: 50.1 µM [inhibitor, partial curve]
13 | Cc1ccc(Oc2nnc(-c3ccccc3)cc2C#N)cc1 | inconclusive: 3.55 µM [inhibitor, partial curve]
14 | O=C(c1ccc(F)cc1)C1CCN(CCn2c(=S)[nH]c3ccccc3c2=O)CC1 | inconclusive: 44.7 µM [inhibitor, single point]
15 | COc1cccc2c1NC(C(=O)O)C1CC=CC21 (stereo not drawn) | active: 11.2 µM
16 | CCN(CC(=O)NCc1ccncc1)S(=O)(=O)c1ccc(OC)cc1 | inconclusive: 37.7 µM [inhibitor, single point]
17 | COc1cc(/C=C2/C(=O)c3cccc([N+](=O)[O-])c3C2=O)c(Br)cc1O | inconclusive: 31.6 µM [inhibitor, partial curve]
18 | CCCCN(C(=O)c1cc2c(s1)CCC2)c1c(N)n(CCC)c(=O)[nH]c1=O | inactive
19 | COCCCn1c(=O)/c(=C\c2ccccc2OC(F)F)s/c1=C(/C#N)C(=O)NC(C)C | inactive
20 | CC(=O)c1cc(C#N)c(NCc2ccccc2)nc1C | inconclusive: 3.55 µM [inhibitor, single point]
21 | CCOc1ccc(NC(=O)C2CC(=O)N(C(C)C)C2)cc1 (stereo not drawn) | inconclusive: 14.1 µM [inhibitor, single point]
22 | COc1cc2c(cc1NC(=O)C(C)OC(=O)c1ccc(S(=O)(=O)Nc3ccccc3Cl)cc1)oc1ccccc12 (stereo not drawn) | inconclusive: 44.7 µM [inhibitor, single point]

Row | Structure (SMILES) | Potency
23 | COc1ccccc1N1CCN(C(=O)c2ccc(N3CCCC3=O)cc2)CC1 | inconclusive: 44.7 µM [inhibitor, single point]
24 | CC(C(=O)Nc1ccc(C(=O)O)c(O)c1)N1C(=O)/C(=C\c2ccco2)SC1=S (stereo not drawn) | active: 21.2 µM
25 | O=C(Nc1ccc2[nH]c(=S)sc2c1)Nc1ccccc1F | inconclusive: 0.501 µM [inhibitor, full curve, poor fit]
26 | Clc1ccc2c(NNc3ccccc3Cl)ccnc2c1 | inactive
27 | CC[C@H](C)[C@H](NC(=O)[C@H](C)NC(=O)[C@@H](N)C(C)C)C(=O)N[C@H](C(=O)N[C@H](C(=O)N[C@@H](CC(C)C)C(=O)N[C@H](C(=O)N[C@@H](CCCCN)C(=O)O)C(C)C)C(C)C)[C@@H](C)O | inactive
28 | Cc1cc(C)cc(N2C(=O)C3NN=C(C(=O)OCc4ccccc4)C3C2=O)c1 (stereo not drawn) | inconclusive: 8.91 µM [inhibitor, single point]
29 | CSc1nnc(Cc2cc(=O)[nH]c(=O)[nH]2)n1-c1cccc(C)c1 | inconclusive: 39.8 µM [inhibitor, single point]
30 | CCC(C)n1c(SCC(=O)Nc2ccccc2C(F)(F)F)nc2ccsc2c1=O (stereo not drawn) | inactive
31 | COc1ccc(CCNc2nc(=S)[nH]c3cc(OC)c(OC)cc23)cc1OC | inconclusive: 25.1 µM [inhibitor, single point]
32 | CCCCNC(=O)Nc1nnc(C(C)(C)C)s1 | inconclusive: 8.91 µM [inhibitor, single point]
33 | COc1ccc(N(C)S(=O)(=O)c2ccc3c(c2)CCC(=O)N3)cc1 | active: 14.1 µM
34 | N#CC1=C(S)N(c2ccccc2)C2(CCCCC2)NC1=O | inconclusive: 0.112 µM [inhibitor, full curve]
35 | COC(=O)C1CCN(C(=O)c2cc(-c3ccco3)nc3ccccc23)CC1 | inconclusive: 9.47 µM [inhibitor, single point]
36 | COc1cccc(-c2cc(=O)c3cc(NC(=O)c4cccnc4)ccc3[nH]2)c1 | inactive
37 | COC(=O)C1=C(COc2ccccc2)NC(=O)NC1c1ccc(Br)cc1 (stereo not drawn) | inconclusive: 0.794 µM [inhibitor, full curve]
38 | O=C1/C(=C/c2c[nH]c3ccccc23)CCC/C1=C\c1c[nH]c2ccccc12 | inconclusive: 17.8 µM [inhibitor, partial curve]
39 | Clc1ccc(CNC2CCCC2)cc1 | inconclusive: 17.8 µM [inhibitor, partial curve]
40 | O=C1c2ccccc2C(Nc2ccc(Cl)cn2)N1Cc1ccccc1 (stereo not drawn) | inconclusive: 20 µM [inhibitor, single point]
41 | COc1cccc(-c2ccc(SCc3ccccn3)nn2)c1 | inconclusive: 7.08 µM [inhibitor, single point]
42 | O=C(NCc1ccco1)c1cc2c(s1)CSC2 | inconclusive: 35.5 µM [inhibitor, single point]
43 | Clc1ccccc1-c1nc(NCc2cccs2)c2ccccc2n1 | active: 7.94 µM

Reformatted in markdown: entries from further up

| Row | Structure (SMILES) | Potency |
| --- | --- | --- |
| 8 | Cc1ccc(-c2ccc(/C=N\NC(=O)c3cc4c(ccc5ccccc54)o3)o2)cc1[N+](=O)[O-] | inactive |
| 20 | CC(=O)c1cc(C#N)c(NCc2ccccc2)nc1C | inconclusive: 3.55 µM [inhibitor, single point] |
